# PubChem BioAssay AID540276 (National Center for Advancing Translational Sciences (NCATS), 2011)
# The campaign covered roughly 300,000 compounds. About 5,400 (1.8%) were called active. The inconclusive results got no clear call from the source; some entries with a clear call stand among them for comparison. The call rests on the fitted dose curve; tested in HEK293 cells. Where the call is inconclusive, the potency comes from a doubtful curve fit.
# Assay: qHTS for inhibitors of binding or entry into cells for Marburg Virus
# Details: Marburg virus pseudotyped entry inhibition, cell reporter; series mostly up to 37.8 µM
# Potency means the concentration at half of the fitted maximal effect.
row,SMILES,Potency
1,CCOC(=O)CNC(=O)C1c2ccccc2Oc2ccccc21,"inconclusive: 1.26 µM [inhibitor, single point]"
2,O=C(CSc1nnc(CNC(=O)c2ccc(F)cc2)o1)Nc1ccc2c(c1)OCO2,"inconclusive: 35.5 µM [activator, single point]"
3,CCN(CC)c1ccc(C(=O)N/N=C/c2ccc(OC)cc2OC)cc1,inactive
4,N[C@@H](Cc1ccc(F)cc1)C(=O)O,"inconclusive: 1.26 µM [inhibitor, single point]"
5,CCN1CCN(c2ccc(S(=O)(=O)N3CCCCC3)cc2NC(=O)c2cccc(NC(C)=O)c2)CC1,"inconclusive: 6.31 µM [inhibitor, partial curve, poor fit]"
6,Cc1nc2ccccc2n1CC(=O)NC(C)C1CC2CCC1C2 (stereo unspecified),"inconclusive: 3.98 µM [inhibitor, partial curve, poor fit]"
7,Cc1ccc(Oc2nccc(-c3ccc(Cl)cc3)n2)cc1,"inconclusive: 12.6 µM [activator, single point]"
8,CN1CCN(c2ccc(Cl)cc2NC(=O)c2ccc(S(=O)(=O)N(C)C)cc2)CC1,"inconclusive: 5.62 µM [inhibitor, full curve, poor fit]"
9,O=C(CSc1nc(-c2ccco2)cc(C(F)(F)F)n1)Nc1ccc(C(=O)N2CCOCC2)cc1,"inconclusive: 8.91 µM [inhibitor, partial curve, poor fit]"
10,CC(c1ccccc1)n1cc2c(c1-c1ccccc1Br)c(=O)n(C)c(=O)n2C (stereo unspecified),"inconclusive: 35.5 µM [inhibitor, single point]"
11,Cc1ccc2c(c1)-c1c(cnc3cc(-c4ccc(F)cc4)nn13)CO2,inactive
12,CC1CCC2(CC1)NC(=O)N(CC(=O)NC(=O)NC1CCCC1)C2=O (stereo unspecified),inactive
13,COc1ccc(-c2noc(CCC(=O)N3CCC(C)CC3)n2)cc1,"inconclusive: 0.103 µM [inhibitor, partial curve, poor fit]"
14,Nn1c(SCC(=O)Nc2nnc(-c3ccccc3)o2)nnc1C1CC1,"inconclusive: 3.16 µM [activator, single point]"
15,Cc1ccc(CNC(=O)c2c(O)nc3cc(C)ccn3c2=O)cc1,"inconclusive: 10 µM [activator, single point]"
16,O=C(NCc1ccc2c(c1)OCO2)c1c[nH]c2ccc(S(=O)(=O)N3CCOCC3)cc2c1=O,inactive
17,Cc1ccc(-c2nnn(CC(=O)N(c3ccccc3F)C(C(=O)NCC3CCCO3)c3c[nH]c4ccccc34)n2)cc1 (stereo unspecified),"inconclusive: 20.6 µM [inhibitor, partial curve, poor fit]"
18,CCN1C(=O)[C@@H]2[C@H]3[C@H](O)[C@H](O)CC(=NOC[C@@H](O)[C@H]4O[C@@H]5OC(C)(C)O[C@H]5[C@@H]4O)[C@@H]3CC[C@H]2C1=O,"inconclusive: 0.0596 µM [inhibitor, partial curve, poor fit]"
19,O=C(c1cc(-c2ccncc2)nc2ccc(Br)cc12)N1CCN(c2ccccn2)CC1,active: 5.62 µM
20,CCCCOc1cccc(C(=O)Nc2cc(NC(=O)c3ccco3)ccc2OC)c1,"inconclusive: 35.5 µM [inhibitor, single point]"
21,COc1ccc(N2CC(C(=O)N/N=C/c3cc([N+](=O)[O-])ccc3O)CC2=O)cc1 (stereo unspecified),"inconclusive: 22.4 µM [inhibitor, single point]"
22,CCCN(CCC)CCCNC(=O)c1cc2cc3ccc(OC)cc3nc2o1,"inconclusive: 25.1 µM [inhibitor, single point]"

row,SMILES,Potency
1,Cc1ccc(OCC(=O)Nc2ccccc2C(=O)N2CCCC2)cc1,"inconclusive: 11.2 µM [inhibitor, partial curve, poor fit]"
2,Cc1cc(C)n(C(=O)Cn2nc(C(F)F)cc2C)n1,inactive
3,COc1ccc(/C=N/NC(=O)Cc2ccc(Cl)cc2)cc1OC,"inconclusive: 8.91 µM [activator, single point]"
4,Cc1cc(=O)n(CCO)c(O)c1C#N,inactive
5,O=C(CSc1ccccc1)Nc1ccc(C(=O)Nc2ccc(O)cc2)cc1,"inconclusive: 22.4 µM [inhibitor, single point]"
6,Cc1nc(C)c(NC(=O)N2CCc3ccccc32)cc1NC(=O)N1CCc2ccccc21,inactive
7,OC(COc1ccc2ccccc2c1Cl)CN1CCOCC1 (stereo unspecified),"inconclusive: 5.01 µM [activator, single point]"
8,CC(=O)c1ccc(NC(=O)c2noc3c2CSc2ccccc2-3)cc1,inactive
9,O=C(NC(=S)Nc1cccnc1)c1cccc(Br)c1,"inconclusive: 3.98 µM [activator, partial curve, poor fit]"
10,Cc1cc(NC(=O)Nc2cccc(Cl)c2)n(-c2ccccc2)n1,inactive
11,COCCOc1ccc(C(F)(F)F)cc1NC(=O)CN1C(=O)NC(C)(c2ccc3c(c2)OCO3)C1=O (stereo unspecified),"inconclusive: 3.55 µM [inhibitor, single point]"
12,Cc1ccc(Cc2cc(-c3ccc(C)cc3)n[nH]c2=O)cc1,"inconclusive: 28.2 µM [inhibitor, single point]"
13,Cc1nnsc1NC(=O)OCC(C)(C)C,"inconclusive: 0.178 µM [activator, full curve, poor fit]"
14,CN(C)S(=O)(=O)c1cccc(C(=O)Nc2ccc3c(c2)CCC3)c1,"inconclusive: 2.82 µM [activator, partial curve, poor fit]"
15,CC(=O)Nc1ccc(NC(=O)C(C)Sc2nnc(-c3ccc4c(c3)OCO4)o2)cc1 (stereo unspecified),"inconclusive: 3.16 µM [activator, partial curve, poor fit]"
16,Cc1cccc(-c2nnn3c2nc(NCc2ccc4c(c2)OCO4)c2ccccc23)c1,inactive
17,CCCOc1ccc(/C=N/NC(=S)Nc2ccccc2[N+](=O)[O-])c(O)c1,"inconclusive: 1.84 µM [inhibitor, partial curve, poor fit]"
18,Oc1ccc(Nc2nc(NCC3CCCO3)c3ccccc3n2)cc1 (stereo unspecified),"inconclusive: 29.1 µM [inhibitor, single point]"
19,COc1ccc(/C=C/C(=O)NC(=S)NNC(=O)c2c(-c3ccccc3)noc2C)cc1,"inconclusive: 25.1 µM [inhibitor, partial curve, poor fit]"
20,O=S(=O)(NCC1(N2CCOCC2)CCCCC1)c1ccccc1Cl,inactive
21,CCCCn1c(N)c(N(CC(C)C)C(=O)C2CCCN(C(=O)c3ccc(Cl)cc3)C2)c(=O)[nH]c1=O (stereo unspecified),"inconclusive: 3.55 µM [inhibitor, full curve]"
22,CN(C)S(=O)(=O)N1CCN(C(=O)N2CCCCC2)CC1,inactive

# In a second layout: results already given
row	SMILES	Potency
11	COCCOc1ccc(C(F)(F)F)cc1NC(=O)CN1C(=O)NC(C)(c2ccc3c(c2)OCO3)C1=O (stereo unspecified)	inconclusive: 3.55 µM [inhibitor, single point]
12	Cc1ccc(Cc2cc(-c3ccc(C)cc3)n[nH]c2=O)cc1	inconclusive: 28.2 µM [inhibitor, single point]
13	Cc1nnsc1NC(=O)OCC(C)(C)C	inconclusive: 0.178 µM [activator, full curve, poor fit]
14	CN(C)S(=O)(=O)c1cccc(C(=O)Nc2ccc3c(c2)CCC3)c1	inconclusive: 2.82 µM [activator, partial curve, poor fit]

# Next part

row,SMILES,Potency
1,CCCCc1ccc(NC(=O)CC(C)(C)C)cc1,"inconclusive: 2.31 µM [activator, full curve]"
2,CCN(CCCc1ccccc1)CCCc1ccccc1,active: 5.8 µM
3,COCCN(Cc1ccccc1)C(=O)c1cc(-c2ccc(OC)c(OC)c2)nc2ccccc12,"inconclusive: 1.78 µM [inhibitor, partial curve, poor fit]"
4,Cc1cccc(C(=O)NCC(c2cccs2)N2CCOCC2)c1 (stereo unspecified),inactive
5,COc1ccc(CCNC(=O)c2ccccc2NC(=O)c2ccco2)cc1OC,"inconclusive: 22.4 µM [inhibitor, single point]"
6,CC(NC(=O)COC(=O)CCc1nc(=O)c2ccccc2n1C)c1ccccc1 (stereo unspecified),"inconclusive: 3.98 µM [inhibitor, partial curve, poor fit]"
7,Cc1nn(Cc2ccccc2)c(C)c1NC(=O)c1noc2c1CCc1ccccc1-2,inactive
8,COc1ccc(C(=O)Oc2ccc(/C=N/Nc3ccc(Cl)c(C(=O)O)c3)cc2OC)cc1,inactive
9,N/C(=N\OC(=O)c1ccccc1)c1ccn[nH]1,"inconclusive: 15.8 µM [inhibitor, single point]"
10,Cc1cc(C)c(C(=O)NC2CCCc3c2cnn3-c2ccc(C)c(C)c2)c(=O)[nH]1 (stereo unspecified),"inconclusive: 35.5 µM [inhibitor, single point]"
11,COc1ccc(Nc2nc(-c3cccs3)nc3ccccc23)c(OC)c1,"inconclusive: 1.41 µM [inhibitor, single point]"
12,Fc1ccc(Nc2nc(-c3ccncc3)cs2)cc1,inactive
13,CN1CCOc2cc(S(=O)(=O)NCc3ccc(S(N)(=O)=O)cc3)ccc21,inactive
14,Cc1c(NC(=O)C(C)OC(=O)CCc2c[nH]c3ccccc23)c(=O)n(-c2ccccc2)n1C (stereo unspecified),"inconclusive: 3.98 µM [activator, single point]"
15,CCn1c2ccccc2c2cc(NC(=O)COC(=O)c3cc(OC)c(OC)cc3OC)ccc21,"inconclusive: 11.2 µM [inhibitor, partial curve]"
16,Cc1c(C(=O)NC2CCCCC2)oc2ccc(F)cc12,"inconclusive: 3.98 µM [activator, full curve]"
17,CCCc1nc2ccccc2n1CC(O)COc1ccc(C(=O)OC)cc1 (stereo unspecified),"inconclusive: 5.62 µM [activator, single point]"
18,CCOC(=O)C1C(=O)NC(N2CCCCC2)=NC1c1ccco1 (stereo unspecified),inactive
19,CSc1ccc(/C=N/NC(=O)c2ccccc2Cl)cc1,"inconclusive: 15.8 µM [inhibitor, single point]"
20,CCOC(=O)c1ccc(NC(=O)Cn2nnc(-c3ccccc3F)n2)cc1,"inconclusive: 5.62 µM [inhibitor, partial curve, poor fit]"
21,CCC(C)[C@H](NC(=O)Nc1ccc(S(N)(=O)=O)cc1)C(=O)O (stereo partly specified),"inconclusive: 29.1 µM [activator, single point]"
22,CN(Cc1ccccn1)Cc1nc(COc2ccccc2)no1,"inconclusive: 10 µM [activator, partial curve]"
